# “And” between values parts separate entries of the source, which are not always exact repeats. Identical values can stand only once. Only a part is listed here, and it is no random draw. The source made the active and inactive calls. Calls come from the whole dose curve.
# Test system: Schistosoma mansoni peroxiredoxin 2 (Prx2)
# Test: Schistosoma Mansoni Peroxiredoxins (Prx2)
# Settings: S. mansoni Prx2 activity coupled to TGR/GSH (TGR is thioredoxin glutathione reductase), NADPH fluorescence loss, qHTS
# Description: NIH Molecular Libraries Screening Centers Network [MLSCN]
# NIH Chemical Genomics Center [NCGC]
# David Williams [Illinois State University]
# Schistosoma mansoni, a causative agent of schistosomiasis, resides in the bloodstream of their host up to 30 years without being eliminated by the host immune attack. One proposed survival mechanism is the production of an antioxidant "firewall" that neutralizes the oxidative assault of the host's immune attack. Schistosoma mansoni peroxiredoxins (Prx) are important parasite antioxidant proteins that play a crucial role in redox balance mechanisms. […] First, the proteins are essential for the parasite survival. […] Third, the protein(s) is amenable for study at the molecular level and can be produced in bacteria in large quantities, in soluble and active form. Inhibition of Prx activity was screened in a coupled-enzyme format with reducing equivalents being transferred from NADPH to […] intermediate via thioredoxin/glutathione reductase (TGR)-catalyzed reaction, then from thioredoxin to hydrogen peroxide via Prx-catalyzed electron transfer. A decrease in the fluorescence intensity of NADPH was used to measure the enzyme activity. Purified S. mansoni TGR and Prx were provided by Professor David L. Williams, Illinois State University.
# NCGC Assay Protocol Summary:
# 100 mM phosphate buffer, pH 7.4, 10 mM EDTA, 0.01% Tween-20.
# 100 uM NADPH/25 nM TGR/700 uM GSH/50 nM Prx2 mixture in columns 1, 2, 5-48. Titration of control potassium antimonyl tartrate (PAT, from 1 mM, then 1:5) pin-transferred to lower half of column 2. Column 1 and upper half of column 2 are neutral (100% activity).
# Three uL of reagents were dispensed to 1536-well Greiner black plates. Compounds and controls (20 nL) were transferred via Kalypsys PinTool. The plates were incubated for 15 min at room temperature, and then a 1 uL aliquot of 400 uM NADPH/700 uM GSH was added, immediately followed by a 1uL aliquot of 2.5 mM H2O2 (to start the reaction). The plate was transferred to ViewLux (Perkin-Elmer) High-throughput CCD imager where kinetic measurements (every 30 sec, for a total of 8 min) of NADPH fluorescence were taken using 365 nm excitation/450 nm emission filter set. During dispense, enzyme-containing reagent bottles were kept submerged into 4 deg C water bath to minimize degradation.
# Keywords: NIH Roadmap, MLSCN, MLI, MLSMR, David Williams, Peroxyredoxin, Schistosoma mansoni, prx2, prx, , qHTS, NCGC
# Potency is the fitted concentration of half-maximal effect.
row,SMILES,Potency
1,Cc1ccccc1Nc1nnc(SCC(=O)NCc2ccco2)s1,inactive: > 57 µM
2,Cc1nnc(SCC(=O)NCc2cccs2)[nH]c1=O,inactive: > 57 µM
3,CC(C)CN(C(=O)COC(=O)c1cc2ccccc2oc1=O)C1CCS(=O)(=O)C1 (stereo not drawn),inactive: > 57 µM
4,CSc1nc(-c2ccccc2)nc2[nH]ccc(=O)c12,inactive: > 57 µM
5,Cc1sc2ncnc(N3CCN(c4ncccn4)CC3)c2c1C,inactive: > 57 µM
6,Cn1c(NCCN2CCOCC2)nc2c1c(=O)n(Cc1cccc(Cl)c1)c(=O)n2C,inactive: > 57 µM
7,CCOC(=O)c1c(C)n(C)c2ccc(OC)c(NC(=O)CN3CCN(C(=O)c4ccco4)CC3)c12,inactive: > 57 µM
8,O=S(=O)(c1ccccc1)N1CCN(S(=O)(=O)c2ccccc2)c2ccccc21,inactive: > 57 µM
9,CC(C)c1ccc(NC(=O)COC(=O)C2=COCCO2)cc1,inactive: > 57 µM
10,O=C(Cn1cccc1)NCc1cccs1,inactive: > 57 µM
11,Cc1cc(C(F)(F)F)nc(SCC(=O)NC2=NC(=O)C(C)S2)n1 (stereo not drawn),inactive: > 57 µM
12,Cc1[nH]nc2c1C(c1ccccc1)C1=C(CC(C)(C)CC1=O)N2 (stereo not drawn),inactive: > 57 µM
13,CC(=O)[C@@H]1CC[C@@H]2[C@H]3CC[C@H]4C[C@@H](O)CC[C@]4(C)[C@@H]3C(=O)C[C@]21C,inactive: > 57 µM
14,Nc1nc2ccc(OC(F)(F)F)cc2s1,inactive: > 57 µM and inactive: > 25.6 µM
15,CC1(C)CC(=O)C2=C(C1)OC(N)=C(C#N)C2c1ccccc1OC(=O)N1CCOCC1 (stereo not drawn),inactive: > 57 µM
16,CC(=O)Nc1cccc(NC(=O)CSc2nnc(Cc3cccn3C)n2-c2ccc(F)cc2)c1,inactive: > 57 µM
17,CCC(C)C(NC(=O)OC(C)(C)C)C(=O)NCc1ccco1 (stereo not drawn),inactive: > 57 µM
18,O=C(Cc1ccc(Cl)cc1)Nc1ccc(N2CCN(C(=O)c3ccco3)CC2)cc1,inactive: > 57 µM
19,Cc1c(OCC(=O)OC(C)C)ccc2c3c(c(=O)oc12)CCC3,inactive: > 57 µM
20,C[C@@H](C(=O)NCc1ccc(C(F)(F)F)nc1)[C@H]1C[C@]1(C)[C@H](NC(=O)OCc1ccccc1)c1ccccc1,inactive: > 57 µM
21,CC(=O)OCP(C)(=O)COC(C)=O,inactive: > 57 µM
22,Cc1cc(/C=C\c2ccc3cc(N(C)C)ccc3[n+]2C)c(C)n1-c1ccccc1,inactive: > 57 µM
23,CSc1ccc(S(=O)(=O)NCc2ccccc2Cl)cc1,inactive: > 57 µM
24,CCC(C)NC(=O)C1CCN(S(=O)(=O)c2cccnc2)CC1 (stereo not drawn),inactive: > 57 µM

row,SMILES,Potency
1,N#CC1=C(N)Oc2c(oc(CO)cc2=O)C12C(=O)Nc1ccc(Cl)cc12 (stereo not drawn),inactive: > 57 µM
2,O=C(CSc1nc(-c2cccs2)cc(C(F)(F)F)n1)NCCCn1ccnc1,inactive: > 57 µM
3,COc1ccc2cc(CN(CCO)C(=O)c3ccc(Br)cc3)c(=O)[nH]c2c1,inactive: > 57 µM
4,COc1ccc(N2CCN(C(=O)CC3NC4CCCCC4NC3=O)CC2)cc1 (stereo not drawn),inactive: > 57 µM
5,COc1ccc(OCC(=O)Nc2cc(OC)cc(OC)c2)cc1,inactive: > 57 µM
6,COCCN(CCOC)C(=O)CCn1c(=O)oc2ccccc21,inactive: > 57 µM
7,Cc1ccc(NC(=O)Cn2nc(C)c3ccccc3c2=O)cc1F,inactive: > 57 µM
8,CSc1nc(N2CCOCC2)c2c3c(sc2n1)CCC3,inactive: > 57 µM
9,CCOCCCn1c(=N)c(C(=O)NCc2ccc3c(c2)OCO3)cc2c(=O)n3cccc(C)c3nc21,inactive: > 57 µM
10,CCN(CC)CCCN1C(=O)C(O)=C(C(=O)c2cc3cccc(OC)c3o2)C1c1ccncc1 (stereo not drawn),inactive: > 57 µM
11,COc1ccccc1NC(=O)CSc1nccc(=O)[nH]1,inactive: > 57 µM
12,CCCc1cc(C(N)=O)c(NC(C)=O)s1,inactive: > 57 µM
13,CCN(C(=O)COc1cc(=O)n(CC)c2ccccc12)c1cc(Cl)ccc1OC,inactive: > 57 µM
14,NS(=O)(=O)c1ccc(NC(=O)c2ccccc2C(=O)N2CCCCC2)cc1,inactive: > 57 µM
15,CC[C@](C)(CN(C)C)OC(=O)c1ccccc1,inactive: > 57 µM
16,Cc1ccccc1CS(=O)(=O)Cc1ccc(C(=O)NCCCN2CCOCC2)o1,inactive: > 57 µM
17,O=C(O)CSc1nnc(Cn2c(=O)sc3ccccc32)n1-c1cccc(Cl)c1,inactive: > 57 µM
18,O=C1OCCN1/N=C\c1ccc([N+](=O)[O-])o1,inactive: > 57 µM
19,O=C(CCS(=O)(=O)c1ccc(Br)cc1)N1CCN(c2ccccc2F)CC1,inactive: > 57 µM
20,O=C(C(Cc1ccccc1)N1C(=O)C2C3C=CC(C3)C2C1=O)N1CCCCCC1 (stereo not drawn),inactive: > 57 µM
21,COc1ccc(C2CC(=O)c3cnc(NC(=O)c4cccc(OC)c4)nc3C2)cc1 (stereo not drawn),inactive: > 57 µM
22,CCOC(=O)c1ccc(NC(=O)CSc2nc3c(c(=O)n2CC)SC(C)C3)cc1 (stereo not drawn),inactive: > 57 µM
23,CCSc1nnc(NC(=O)CSc2nnc(Cc3cccn3C)n2-c2ccc(C)cc2)s1,inactive: > 57 µM
24,COC(=O)c1cc(CSc2nc3ccc(C)cc3[nH]2)oc1C,inactive: > 57 µM

row,SMILES,Potency
1,Clc1ccc(-c2noc(CN3CCN(c4ccccc4)CC3)n2)cc1,inactive: > 57 µM
2,CN(C)C(CNc1nnnn1-c1ccccc1)c1ccco1 (stereo not drawn),inactive: > 57 µM
3,CCC(C)(C)NC(=O)CC(c1ccc(OC)cc1)n1cccc1 (stereo not drawn),inactive: > 57 µM
4,O=S(=O)(Nc1ccc(S(=O)(=O)N2CCCCC2)cc1)c1cccs1,inactive: > 57 µM
5,O=C(Cn1ncc2c1-c1ccccc1OC2)N1CCc2ccccc21,inactive: > 57 µM
6,Cc1ccc(S(=O)(=O)N[C@H](C(=O)N2CCC(C(=O)N3CCC[C@H]3C(=O)O)CC2)C(C)C)cc1,inactive: > 57 µM
7,CCn1c(CNc2ccc(OC)cc2)nnc1SCC(=O)N1CCCc2ccccc21,inactive: > 57 µM
8,C[C@@H]1C[C@H]2[C@@H]3C[C@H](F)C4=CC(=O)C=C[C@@]4(C)[C@]3(F)[C@H](O)C[C@]2(C)[C@@]1(O)C(=O)CO,inactive: > 57 µM
9,CCOC(=O)CN1CC23C=CC(O2)C(C(=O)NC2CCCCC2)C3C1=O (stereo not drawn),inactive: > 57 µM
10,CC(=O)[C@@H]1CC[C@H]2[C@H]3CC[C@H]4C[C@@H](O)CC[C@]4(C)[C@@H]3C(=O)C[C@@]12C,inactive: > 57 µM
11,O=C1c2cccc(O)c2C(=O)c2c(O[C@@H]3O[C@H](CO)[C@@H](O)[C@H](O)[C@@H]3O)cccc21,active: 12.2 µM
12,COc1ccc(OCCSc2nnnn2C2CCCCC2)cc1,inactive: > 57 µM
13,COC(=O)c1ccc(CNC(=O)CSc2nc3sc(C)c(C)c3c(=O)n2C)o1,inactive: > 57 µM
14,Cc1ccc(SCc2nc(-c3cccnc3)no2)cc1,inactive: > 57 µM
15,Cn1c(Nn2cnnc2)nc2ccccc21,inactive: > 57 µM
16,CCN1CCN(C(=O)CS(=O)Cc2nc(-c3ccc(OC)cc3)oc2C)CC1 (stereo not drawn),inactive: > 57 µM
17,NCCC[C@@H](N)C(=O)O,inactive: > 57 µM
18,Fc1cccc(CN2CCCCCCC2)c1,inactive: > 57 µM
19,Cc1nc(NCC2CCCO2)[nH]c(=O)c1CCC(C)C (stereo not drawn),inactive: > 57 µM
20,O=C(OC1CCCCC1)c1ccc2c(c1)C1C=CCC1C(C(=O)O)N2 (stereo not drawn),inactive: > 57 µM
21,O=C(O)c1ccc2c(c1)CC(c1ccccc1)OC2=O (stereo not drawn),inactive: > 57 µM
22,CC(C)OCCCn1c(=S)[nH]c2ccc(N3CCOCC3)cc2c1=O,inactive: > 57 µM
23,CCOc1cc(C)c(Cl)cc1S(=O)(=O)N(C)C,inactive: > 57 µM
24,CCN(CC)S(=O)(=O)c1cccc(C(=O)Nc2ccc(Cl)cn2)c1,inactive: > 57 µM

row,SMILES,Potency
1,CCOc1ccccc1C(=O)N(Cc1cccs1)C1CCS(=O)(=O)C1 (stereo not drawn),inactive: > 57 µM
2,CCCn1c(=O)c(C)cn2nc(N)nc12,inactive: > 57 µM
3,CCC[C@H]1C[C@H](C(=O)N[C@@H]([C@H]2O[C@@H](SC)[C@@H](O)[C@@H](O)[C@@H]2O)[C@H](C)Cl)N(C)C1,inactive: > 57 µM
4,CCc1ccc(Cn2nnc(C(=O)NCc3ccccc3OC)c2N)cc1,inactive: > 57 µM
5,O=C(O)C1CC=CCC1C(=O)NCc1cn2ccccc2n1 (stereo not drawn),inactive: > 57 µM
6,CSc1ccccc1NC(=O)c1cc(CC(C)C)on1,inactive: > 57 µM
7,CC(Sc1nc2ccccc2s1)C(=O)N1CCOCC1 (stereo not drawn),inactive: > 57 µM
8,O=C(CCSCCc1ccncc1)NCCCN1CCOCC1,inactive: > 57 µM
9,O=C(CCCn1c(=S)[nH]c2cc3c(cc2c1=O)OCO3)N1CCN(c2ccc(Cl)cc2)CC1,inactive: > 57 µM
10,COc1cc(NS(C)(=O)=O)c(OC)cc1NC(=O)c1cccc(F)c1,inactive: > 57 µM
11,Cn1c(CCN2CCCCC2)nc2cc(NS(=O)(=O)c3ccccc3)ccc21,inactive: > 57 µM
12,Cn1c(CCN2CCN(c3ccccc3)CC2)nc2cc(NC(=O)c3ccco3)ccc21,inactive: > 57 µM
13,COc1ccc(Cl)cc1NC(=O)C1CCCN(c2cc(C)nc3ncnn23)C1 (stereo not drawn),inactive: > 57 µM
14,CCOc1cc(C2C(C(=O)OC(C)C)=C(C)N=C3SCCC(=O)N32)ccc1OC(C)=O (stereo not drawn),inactive: > 57 µM
15,Cc1ccc(CNc2ccc(O)cc2)cc1,inactive: > 57 µM
16,CCCCOC(=O)C1=C(C)Nc2nnnn2C1c1ccc(OC)c(OC)c1OC (stereo not drawn),inactive: > 57 µM
17,O=S(=O)(c1cccc2nsnc12)N1CCN(c2ncccn2)CC1,inactive: > 57 µM
18,NC(N)=NCCN1CCCCCCC1,inactive: > 57 µM
19,CCC(C)(C)NC(=O)C(c1ccc(C)o1)N(Cc1cccs1)C(=O)Cn1nnc2ccccc21 (stereo not drawn),inactive: > 57 µM
20,CC(C)C(=O)N1CCN(C2=NS(=O)(=O)c3ccccc32)CC1,inactive: > 57 µM
21,Cc1oc(C(=O)Nc2ccc(O)cc2)cc1COc1ccccc1,inactive: > 57 µM
